Results are given in words; binding and its absence hold for the method and conditions named. Binding seen in cells or lysates may run through a third protein. Some entries that bind do so weakly or less than the wild type.
How the values were obtained:
[1] = target: Human GRP75 with c-term hemagglutinin (HA) tag, wild type (human) (UniProt P38646); test: co-IP; IP with HA antibody from AML12 cells overexpressing HA-tagged WT or phospho-mutant GRP75, either co-overexpressing PDK4-FLAG (Fig. 3g) or treated with 100 mM EtOH for 24 h (Fig. 4a); immunoblotting of endogenous IP3R1 and VDAC1
[2] = target: glucose-regulated protein 75 (GRP75), endogenous mouse (mouse (endogenous in mouse liver, primary mouse hepatocytes and AML12 cells)) (UniProt P38647); test: proximity ligation; in situ PLA (Duolink) on fixed, permeabilised primary mouse hepatocytes (Pdk4+/+ and Pdk4-/-), with or without 100 mM EtOH for 24 h; endogenous proteins
[3] = target: Human GRP75 with c-term hemagglutinin (HA) tag, wild type (human) (UniProt P38646); test: proximity ligation; in situ PLA (Duolink) on fixed, permeabilised AML12 cells; endogenous proteins, PDK4-FLAG (FLAG antibody) or HA-tagged GRP75 WT/mutants (HA antibody) co-overexpressed with PDK4-FLAG; with or without 100 mM EtOH for 24 h
[4] = target: glucose-regulated protein 75 (GRP75), endogenous mouse (mouse (endogenous in mouse liver, primary mouse hepatocytes and AML12 cells)) (UniProt P38647); test: as above
[5] = target: glucose-regulated protein 75 (GRP75), endogenous mouse (mouse (endogenous in mouse liver, primary mouse hepatocytes and AML12 cells)) (UniProt P38647); test: co-IP; IP with GRP75 antibody from liver lysates of control diet (CD) and EtOH diet (ED)-fed mice; lysis buffer 50 mM Tris, 150 mM NaCl, 1% Triton X-100, 1 mM EDTA, 10% glycerol; A/G plus agarose beads overnight at 4 °C; immunoblotting

Chains of the proteins cited; added tags and fusions are not shown. Residues count along the entry.
UniProt P38646, residues 47-679: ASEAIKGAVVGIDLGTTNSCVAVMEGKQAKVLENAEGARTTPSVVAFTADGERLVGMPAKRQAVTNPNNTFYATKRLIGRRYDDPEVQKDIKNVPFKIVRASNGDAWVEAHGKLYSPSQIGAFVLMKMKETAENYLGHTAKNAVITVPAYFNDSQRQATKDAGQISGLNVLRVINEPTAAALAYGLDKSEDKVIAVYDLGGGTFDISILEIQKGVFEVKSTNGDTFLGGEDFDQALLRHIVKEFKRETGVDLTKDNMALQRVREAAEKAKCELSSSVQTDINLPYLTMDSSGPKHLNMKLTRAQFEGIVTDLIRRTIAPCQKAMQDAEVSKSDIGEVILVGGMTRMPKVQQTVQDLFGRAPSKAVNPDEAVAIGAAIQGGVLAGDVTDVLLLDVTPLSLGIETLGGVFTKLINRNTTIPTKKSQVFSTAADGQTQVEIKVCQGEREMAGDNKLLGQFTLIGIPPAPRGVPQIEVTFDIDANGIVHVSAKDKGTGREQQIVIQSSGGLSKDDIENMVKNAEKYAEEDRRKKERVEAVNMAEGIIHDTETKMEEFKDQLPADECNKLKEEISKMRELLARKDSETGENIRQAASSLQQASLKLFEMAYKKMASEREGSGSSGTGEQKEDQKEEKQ
UniProt P38647, residues 47-679: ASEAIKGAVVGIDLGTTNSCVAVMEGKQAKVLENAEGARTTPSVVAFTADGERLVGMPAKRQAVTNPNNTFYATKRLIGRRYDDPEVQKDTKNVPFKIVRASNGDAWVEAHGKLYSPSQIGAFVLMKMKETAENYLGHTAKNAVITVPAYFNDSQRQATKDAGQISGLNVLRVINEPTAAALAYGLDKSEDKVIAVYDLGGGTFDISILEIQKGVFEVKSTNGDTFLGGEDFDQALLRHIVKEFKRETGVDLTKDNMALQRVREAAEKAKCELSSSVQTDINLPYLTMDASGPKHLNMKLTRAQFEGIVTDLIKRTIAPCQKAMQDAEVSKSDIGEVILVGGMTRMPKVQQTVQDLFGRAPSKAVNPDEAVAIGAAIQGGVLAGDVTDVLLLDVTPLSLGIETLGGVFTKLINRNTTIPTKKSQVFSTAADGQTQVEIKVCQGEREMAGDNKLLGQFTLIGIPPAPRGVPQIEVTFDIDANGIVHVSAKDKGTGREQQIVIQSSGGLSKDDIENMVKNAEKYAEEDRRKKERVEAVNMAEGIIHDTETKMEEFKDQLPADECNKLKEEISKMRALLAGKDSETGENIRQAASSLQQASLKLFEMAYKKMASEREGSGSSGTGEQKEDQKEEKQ
UniProt P11881: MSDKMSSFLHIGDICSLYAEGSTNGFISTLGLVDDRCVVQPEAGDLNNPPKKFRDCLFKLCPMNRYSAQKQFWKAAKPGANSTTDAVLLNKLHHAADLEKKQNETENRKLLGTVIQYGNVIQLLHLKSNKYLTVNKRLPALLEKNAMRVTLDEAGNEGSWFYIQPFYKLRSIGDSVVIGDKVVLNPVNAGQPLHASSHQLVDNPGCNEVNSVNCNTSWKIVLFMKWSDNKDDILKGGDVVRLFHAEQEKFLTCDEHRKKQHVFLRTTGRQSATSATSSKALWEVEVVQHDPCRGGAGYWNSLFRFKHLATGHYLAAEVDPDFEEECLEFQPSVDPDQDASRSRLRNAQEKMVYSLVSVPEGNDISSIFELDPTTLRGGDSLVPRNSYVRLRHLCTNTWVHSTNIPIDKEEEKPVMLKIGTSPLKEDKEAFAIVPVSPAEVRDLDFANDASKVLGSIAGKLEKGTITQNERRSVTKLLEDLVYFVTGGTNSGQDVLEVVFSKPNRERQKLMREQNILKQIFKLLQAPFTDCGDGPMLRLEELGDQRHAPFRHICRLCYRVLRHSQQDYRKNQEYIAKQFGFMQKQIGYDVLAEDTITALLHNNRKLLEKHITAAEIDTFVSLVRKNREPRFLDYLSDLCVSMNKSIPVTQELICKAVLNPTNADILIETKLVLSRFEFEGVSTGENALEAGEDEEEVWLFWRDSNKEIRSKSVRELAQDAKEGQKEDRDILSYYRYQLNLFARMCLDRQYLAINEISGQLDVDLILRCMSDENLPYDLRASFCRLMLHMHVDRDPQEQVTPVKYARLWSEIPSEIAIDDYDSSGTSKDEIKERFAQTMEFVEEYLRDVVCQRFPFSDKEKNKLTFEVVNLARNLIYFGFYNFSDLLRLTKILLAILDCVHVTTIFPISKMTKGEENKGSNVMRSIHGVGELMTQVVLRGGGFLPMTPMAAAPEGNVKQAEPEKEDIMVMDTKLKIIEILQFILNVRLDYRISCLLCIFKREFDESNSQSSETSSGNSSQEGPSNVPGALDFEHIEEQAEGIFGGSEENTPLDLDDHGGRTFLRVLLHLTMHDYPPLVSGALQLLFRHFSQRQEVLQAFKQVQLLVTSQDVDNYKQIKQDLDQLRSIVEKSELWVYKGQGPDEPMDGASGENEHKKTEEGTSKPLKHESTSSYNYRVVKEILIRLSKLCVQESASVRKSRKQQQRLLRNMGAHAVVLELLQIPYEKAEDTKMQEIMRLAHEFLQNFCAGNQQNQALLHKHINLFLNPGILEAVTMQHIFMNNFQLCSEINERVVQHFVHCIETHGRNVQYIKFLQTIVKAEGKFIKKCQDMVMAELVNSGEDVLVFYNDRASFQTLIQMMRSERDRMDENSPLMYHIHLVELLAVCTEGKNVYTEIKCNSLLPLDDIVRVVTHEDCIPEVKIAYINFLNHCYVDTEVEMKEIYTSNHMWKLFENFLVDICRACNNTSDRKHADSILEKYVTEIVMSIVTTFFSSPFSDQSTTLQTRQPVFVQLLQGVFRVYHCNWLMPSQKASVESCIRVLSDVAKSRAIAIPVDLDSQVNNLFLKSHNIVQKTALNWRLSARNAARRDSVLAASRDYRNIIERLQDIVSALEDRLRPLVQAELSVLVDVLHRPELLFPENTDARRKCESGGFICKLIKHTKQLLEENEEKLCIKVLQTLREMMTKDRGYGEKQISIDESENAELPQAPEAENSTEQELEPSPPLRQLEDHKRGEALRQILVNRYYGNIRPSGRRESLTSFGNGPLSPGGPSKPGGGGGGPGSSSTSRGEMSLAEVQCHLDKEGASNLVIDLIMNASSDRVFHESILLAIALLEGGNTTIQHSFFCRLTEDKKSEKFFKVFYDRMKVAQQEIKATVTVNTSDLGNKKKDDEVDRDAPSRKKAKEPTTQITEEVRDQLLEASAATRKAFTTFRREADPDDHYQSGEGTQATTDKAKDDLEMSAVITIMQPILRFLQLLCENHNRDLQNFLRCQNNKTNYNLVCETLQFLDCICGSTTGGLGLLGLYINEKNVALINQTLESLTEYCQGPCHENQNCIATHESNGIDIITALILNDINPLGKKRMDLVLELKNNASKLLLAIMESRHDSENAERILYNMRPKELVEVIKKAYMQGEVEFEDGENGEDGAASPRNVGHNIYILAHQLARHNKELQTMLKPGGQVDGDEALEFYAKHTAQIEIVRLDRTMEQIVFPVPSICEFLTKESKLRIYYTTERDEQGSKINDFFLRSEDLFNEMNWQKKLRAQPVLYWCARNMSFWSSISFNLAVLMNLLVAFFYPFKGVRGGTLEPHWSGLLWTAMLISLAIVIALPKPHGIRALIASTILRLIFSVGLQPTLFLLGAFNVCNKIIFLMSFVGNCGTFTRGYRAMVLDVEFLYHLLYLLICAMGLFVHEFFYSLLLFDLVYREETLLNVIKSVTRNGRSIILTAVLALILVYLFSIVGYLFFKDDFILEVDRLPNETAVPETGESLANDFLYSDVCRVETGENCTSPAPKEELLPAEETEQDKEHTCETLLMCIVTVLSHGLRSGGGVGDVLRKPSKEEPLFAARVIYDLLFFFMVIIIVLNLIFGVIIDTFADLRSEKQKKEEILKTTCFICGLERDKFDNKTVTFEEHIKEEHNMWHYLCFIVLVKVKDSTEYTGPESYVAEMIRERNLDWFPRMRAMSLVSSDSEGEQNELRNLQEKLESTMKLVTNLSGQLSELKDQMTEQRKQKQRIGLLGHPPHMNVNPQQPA

Measured: binding

inositol-1-tri-phosphate receptor 1 (IP3R1), endogenous mouse (from UniProt P11881 1-2749)
binds: all assays above

Source: PMC10042999
